According to the supplement of paper PMC10849652:
The list shows a part of the results.

Chains of the proteins cited; added tags and fusions are not shown. Lines headed by an entry give the natural chain unless they say otherwise; changes in a name come on top.
UniProt O94967: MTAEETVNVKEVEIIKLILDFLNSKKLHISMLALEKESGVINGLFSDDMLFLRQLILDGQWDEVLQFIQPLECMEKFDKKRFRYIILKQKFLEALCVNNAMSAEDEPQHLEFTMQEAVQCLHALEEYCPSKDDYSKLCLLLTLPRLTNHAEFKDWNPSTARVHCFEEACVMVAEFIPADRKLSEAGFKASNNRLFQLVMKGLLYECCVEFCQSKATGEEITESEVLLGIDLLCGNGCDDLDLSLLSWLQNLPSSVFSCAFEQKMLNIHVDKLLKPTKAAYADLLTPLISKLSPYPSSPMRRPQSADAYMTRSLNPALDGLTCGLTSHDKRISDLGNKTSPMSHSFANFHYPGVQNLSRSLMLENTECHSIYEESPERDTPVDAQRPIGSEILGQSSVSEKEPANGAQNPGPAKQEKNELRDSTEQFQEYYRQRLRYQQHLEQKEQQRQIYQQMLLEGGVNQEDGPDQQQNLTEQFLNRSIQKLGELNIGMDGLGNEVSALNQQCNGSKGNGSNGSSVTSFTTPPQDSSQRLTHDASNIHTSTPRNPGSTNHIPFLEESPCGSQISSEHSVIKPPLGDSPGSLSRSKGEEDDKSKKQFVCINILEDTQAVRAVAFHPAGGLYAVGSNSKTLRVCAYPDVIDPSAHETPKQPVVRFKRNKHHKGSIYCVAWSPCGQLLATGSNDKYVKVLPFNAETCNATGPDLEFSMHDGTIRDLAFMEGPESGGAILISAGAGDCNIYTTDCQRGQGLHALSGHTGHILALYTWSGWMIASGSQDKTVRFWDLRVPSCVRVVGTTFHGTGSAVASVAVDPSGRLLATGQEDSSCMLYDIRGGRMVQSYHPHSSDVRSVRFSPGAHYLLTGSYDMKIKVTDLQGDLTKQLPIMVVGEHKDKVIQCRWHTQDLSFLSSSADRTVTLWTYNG
UniProt P21796, whole entry, looked up: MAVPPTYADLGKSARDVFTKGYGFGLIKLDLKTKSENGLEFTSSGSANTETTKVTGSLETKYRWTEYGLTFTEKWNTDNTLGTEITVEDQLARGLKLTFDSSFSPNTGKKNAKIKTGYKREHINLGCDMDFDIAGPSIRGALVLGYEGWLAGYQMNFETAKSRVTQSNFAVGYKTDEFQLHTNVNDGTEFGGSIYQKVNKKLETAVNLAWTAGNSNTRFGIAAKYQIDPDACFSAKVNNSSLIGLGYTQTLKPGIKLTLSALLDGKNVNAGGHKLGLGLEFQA
UniProt Q96AX1: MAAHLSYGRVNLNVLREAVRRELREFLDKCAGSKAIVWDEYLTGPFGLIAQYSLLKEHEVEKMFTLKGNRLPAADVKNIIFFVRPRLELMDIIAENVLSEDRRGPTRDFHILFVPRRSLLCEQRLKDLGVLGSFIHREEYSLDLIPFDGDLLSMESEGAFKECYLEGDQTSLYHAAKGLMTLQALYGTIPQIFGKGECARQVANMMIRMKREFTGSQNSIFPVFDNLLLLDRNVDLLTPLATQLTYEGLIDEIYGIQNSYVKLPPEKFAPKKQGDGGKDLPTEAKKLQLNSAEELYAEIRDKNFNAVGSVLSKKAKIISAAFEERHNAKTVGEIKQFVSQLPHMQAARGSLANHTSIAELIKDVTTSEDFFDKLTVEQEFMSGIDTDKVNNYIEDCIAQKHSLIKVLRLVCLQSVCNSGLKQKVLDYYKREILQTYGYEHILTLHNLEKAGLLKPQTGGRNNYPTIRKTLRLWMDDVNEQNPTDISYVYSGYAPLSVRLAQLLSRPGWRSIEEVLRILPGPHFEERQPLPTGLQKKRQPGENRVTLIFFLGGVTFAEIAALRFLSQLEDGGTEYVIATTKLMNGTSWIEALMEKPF
UniProt Q8N1B4: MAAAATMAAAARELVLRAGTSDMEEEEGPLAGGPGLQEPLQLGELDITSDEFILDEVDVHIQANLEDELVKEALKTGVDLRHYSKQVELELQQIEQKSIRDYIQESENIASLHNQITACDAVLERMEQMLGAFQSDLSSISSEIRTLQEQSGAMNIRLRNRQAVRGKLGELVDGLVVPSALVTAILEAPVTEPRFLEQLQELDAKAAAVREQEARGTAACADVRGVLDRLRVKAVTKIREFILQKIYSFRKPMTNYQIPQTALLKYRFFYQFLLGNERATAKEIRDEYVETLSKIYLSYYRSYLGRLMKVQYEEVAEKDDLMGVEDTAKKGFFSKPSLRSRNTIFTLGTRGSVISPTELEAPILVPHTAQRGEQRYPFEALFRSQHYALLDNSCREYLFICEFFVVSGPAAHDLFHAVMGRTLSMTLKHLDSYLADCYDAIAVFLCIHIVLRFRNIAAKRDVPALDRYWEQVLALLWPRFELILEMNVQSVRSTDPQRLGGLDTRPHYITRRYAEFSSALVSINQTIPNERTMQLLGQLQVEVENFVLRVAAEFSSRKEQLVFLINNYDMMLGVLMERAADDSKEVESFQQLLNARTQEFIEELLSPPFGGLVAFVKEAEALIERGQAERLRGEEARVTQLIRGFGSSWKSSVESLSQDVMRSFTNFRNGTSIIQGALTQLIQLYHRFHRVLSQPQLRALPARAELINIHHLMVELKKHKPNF
UniProt P49754: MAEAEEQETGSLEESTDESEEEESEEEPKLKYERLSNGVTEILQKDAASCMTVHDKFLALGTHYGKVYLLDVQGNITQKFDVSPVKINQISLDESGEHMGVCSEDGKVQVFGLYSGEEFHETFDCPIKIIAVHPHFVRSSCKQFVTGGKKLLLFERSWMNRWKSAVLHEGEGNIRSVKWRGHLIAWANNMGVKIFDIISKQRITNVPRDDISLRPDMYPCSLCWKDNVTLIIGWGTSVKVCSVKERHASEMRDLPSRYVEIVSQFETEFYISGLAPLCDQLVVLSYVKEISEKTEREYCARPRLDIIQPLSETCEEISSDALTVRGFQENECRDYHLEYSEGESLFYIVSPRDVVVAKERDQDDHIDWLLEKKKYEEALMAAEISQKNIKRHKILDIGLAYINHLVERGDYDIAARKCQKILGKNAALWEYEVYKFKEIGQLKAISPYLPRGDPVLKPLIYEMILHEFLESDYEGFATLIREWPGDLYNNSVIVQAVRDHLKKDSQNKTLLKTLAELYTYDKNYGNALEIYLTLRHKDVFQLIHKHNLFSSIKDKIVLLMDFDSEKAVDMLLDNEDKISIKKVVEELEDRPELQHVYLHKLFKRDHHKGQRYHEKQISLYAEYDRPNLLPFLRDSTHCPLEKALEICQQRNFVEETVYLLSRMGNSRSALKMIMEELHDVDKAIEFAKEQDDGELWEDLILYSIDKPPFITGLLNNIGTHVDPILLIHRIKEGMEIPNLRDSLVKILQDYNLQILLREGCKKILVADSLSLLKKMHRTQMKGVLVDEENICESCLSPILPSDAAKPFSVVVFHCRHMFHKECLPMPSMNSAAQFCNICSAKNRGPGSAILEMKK
UniProt A3KMH1: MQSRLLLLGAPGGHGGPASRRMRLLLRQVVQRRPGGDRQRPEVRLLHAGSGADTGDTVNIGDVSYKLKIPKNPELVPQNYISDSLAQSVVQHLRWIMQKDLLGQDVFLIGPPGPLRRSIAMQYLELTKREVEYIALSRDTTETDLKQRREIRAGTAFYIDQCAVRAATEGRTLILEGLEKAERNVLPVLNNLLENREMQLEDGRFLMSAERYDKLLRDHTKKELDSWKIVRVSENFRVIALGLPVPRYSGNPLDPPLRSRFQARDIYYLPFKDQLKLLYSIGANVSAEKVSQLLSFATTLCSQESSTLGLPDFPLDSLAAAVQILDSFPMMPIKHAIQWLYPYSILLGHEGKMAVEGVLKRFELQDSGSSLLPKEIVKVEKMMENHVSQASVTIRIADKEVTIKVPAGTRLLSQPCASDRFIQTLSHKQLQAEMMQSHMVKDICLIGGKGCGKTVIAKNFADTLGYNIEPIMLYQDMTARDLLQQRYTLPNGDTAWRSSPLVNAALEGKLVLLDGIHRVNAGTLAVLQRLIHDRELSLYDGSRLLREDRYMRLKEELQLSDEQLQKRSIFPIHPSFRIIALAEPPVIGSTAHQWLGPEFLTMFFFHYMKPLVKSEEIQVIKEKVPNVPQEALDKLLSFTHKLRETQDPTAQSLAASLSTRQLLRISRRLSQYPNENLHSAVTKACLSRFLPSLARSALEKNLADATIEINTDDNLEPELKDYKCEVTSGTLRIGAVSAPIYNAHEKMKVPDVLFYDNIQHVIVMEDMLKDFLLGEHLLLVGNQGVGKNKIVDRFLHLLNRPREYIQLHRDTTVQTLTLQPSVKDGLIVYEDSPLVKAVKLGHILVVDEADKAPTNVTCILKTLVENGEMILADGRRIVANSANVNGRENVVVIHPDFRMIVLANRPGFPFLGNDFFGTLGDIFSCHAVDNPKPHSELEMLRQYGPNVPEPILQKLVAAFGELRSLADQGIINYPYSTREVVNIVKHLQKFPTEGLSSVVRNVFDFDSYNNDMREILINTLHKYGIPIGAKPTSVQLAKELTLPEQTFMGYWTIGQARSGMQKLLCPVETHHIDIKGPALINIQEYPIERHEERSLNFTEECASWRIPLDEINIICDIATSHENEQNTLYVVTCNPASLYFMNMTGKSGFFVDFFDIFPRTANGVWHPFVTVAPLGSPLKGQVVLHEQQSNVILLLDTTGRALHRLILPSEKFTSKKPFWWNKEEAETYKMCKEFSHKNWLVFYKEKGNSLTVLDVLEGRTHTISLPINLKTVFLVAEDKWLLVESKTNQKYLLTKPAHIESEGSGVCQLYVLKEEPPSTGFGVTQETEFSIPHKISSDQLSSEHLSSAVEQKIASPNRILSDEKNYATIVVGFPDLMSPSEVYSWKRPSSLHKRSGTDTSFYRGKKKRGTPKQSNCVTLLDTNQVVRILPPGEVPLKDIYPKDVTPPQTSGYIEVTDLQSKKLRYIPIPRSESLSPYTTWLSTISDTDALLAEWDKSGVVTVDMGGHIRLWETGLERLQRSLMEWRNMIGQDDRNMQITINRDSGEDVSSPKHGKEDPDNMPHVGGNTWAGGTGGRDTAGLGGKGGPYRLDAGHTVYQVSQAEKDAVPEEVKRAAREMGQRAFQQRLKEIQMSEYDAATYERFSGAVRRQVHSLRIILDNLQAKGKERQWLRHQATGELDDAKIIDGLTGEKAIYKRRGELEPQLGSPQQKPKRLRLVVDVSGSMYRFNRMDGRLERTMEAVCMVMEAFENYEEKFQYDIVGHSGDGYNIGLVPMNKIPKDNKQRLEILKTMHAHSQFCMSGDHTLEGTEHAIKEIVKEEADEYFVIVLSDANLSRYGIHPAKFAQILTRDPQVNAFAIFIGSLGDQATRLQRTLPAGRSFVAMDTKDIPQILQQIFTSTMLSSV
UniProt Q6VEQ5: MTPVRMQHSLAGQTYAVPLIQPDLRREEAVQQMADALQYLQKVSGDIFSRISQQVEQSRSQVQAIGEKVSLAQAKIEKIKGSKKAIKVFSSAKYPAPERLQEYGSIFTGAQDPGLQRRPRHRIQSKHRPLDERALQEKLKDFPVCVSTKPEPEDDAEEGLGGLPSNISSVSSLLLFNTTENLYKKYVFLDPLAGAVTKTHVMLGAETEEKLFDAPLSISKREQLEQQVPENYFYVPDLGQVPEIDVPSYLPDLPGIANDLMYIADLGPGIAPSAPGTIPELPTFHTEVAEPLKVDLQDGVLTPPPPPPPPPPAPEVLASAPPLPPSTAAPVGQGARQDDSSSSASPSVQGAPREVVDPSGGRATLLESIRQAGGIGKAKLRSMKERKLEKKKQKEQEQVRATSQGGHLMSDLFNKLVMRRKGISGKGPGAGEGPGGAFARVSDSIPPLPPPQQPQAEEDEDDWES
UniProt Q9BV38: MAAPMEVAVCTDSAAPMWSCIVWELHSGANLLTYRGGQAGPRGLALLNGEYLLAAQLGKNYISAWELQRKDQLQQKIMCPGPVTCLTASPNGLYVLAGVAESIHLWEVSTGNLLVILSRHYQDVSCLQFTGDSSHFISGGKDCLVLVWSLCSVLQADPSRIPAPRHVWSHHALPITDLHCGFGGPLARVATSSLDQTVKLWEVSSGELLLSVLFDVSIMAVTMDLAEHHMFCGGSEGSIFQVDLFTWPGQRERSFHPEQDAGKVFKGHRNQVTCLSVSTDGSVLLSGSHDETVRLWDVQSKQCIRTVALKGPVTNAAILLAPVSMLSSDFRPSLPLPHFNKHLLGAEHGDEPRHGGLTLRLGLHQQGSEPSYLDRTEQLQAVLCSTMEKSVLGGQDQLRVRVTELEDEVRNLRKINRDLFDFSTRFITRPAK
UniProt Q9UEU0: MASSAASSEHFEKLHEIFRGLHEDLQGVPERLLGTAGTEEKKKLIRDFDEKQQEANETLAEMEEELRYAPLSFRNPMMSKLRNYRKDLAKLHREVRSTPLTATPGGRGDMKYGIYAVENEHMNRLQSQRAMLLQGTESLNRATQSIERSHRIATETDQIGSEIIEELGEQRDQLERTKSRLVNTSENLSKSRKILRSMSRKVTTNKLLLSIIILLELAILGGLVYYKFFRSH

Assays:
Test in all cases: log2 fold change, soluble protein after heating vs DMSO (PISA); higher = thermal stabilisation; K562 cells, 10 uM, 30 min; active = over 0.2 and 3.5 SD of the protein, either way, in both replicates (recomputed)
[1] = compound: CC1=C(C=C(C=C1)NC(=O)C2=CC(=CC=C2)C(C)(C)C#N)NC3=CC4=C(C=C3)N=CN(C4=O)C
Method in brief: (§1)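 Thermal stability values are relative to control samples and come from duplicates. They are expressed as log2 fold changes. For measurement, K562 cells (2×10^6 cells/mL) received 10 μM compound for 30 min, and aliquots were heated for 3 min over 48°C-58°C, pooled, and extracted at 4°C in PBS with 0.5% NP-40. Soluble protein, the supernatant after 21,000xg for 90 min, was quantified by TMTpro 16plex LC-MS/MS with equalised channel sums.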

[2] = compound: CC1=C(C=C(C=C1)NC(=O)C2=CC(=CC=C2)N(C)C)NC(=O)C3=CC=C(C=C3)O
Method in brief: as §1

[3] = compound: CC1=CC=C(C=C1)SC2=C3C=C(SC3=CN=C2)C(=O)N
Method in brief: as §1

[4] = compound: CC1=NC(=CC=C1)C2=C(N=C(N2)C(C)(C)C)C3=CC4=NC=CN=C4C=C3
Method in brief: as §1

[5] = compound: CCCCN(Cc1ccc(C(=O)NO)cc1)C(=O)Nc1ccccc1 [Nexturastat A]
Method in brief: as §1

[6] = compound: CCCS(=O)(=O)Nc1ccc(F)c(C(=O)c2c[nH]c3ncc(-c4ccc(Cl)cc4)cc23)c1F [vemurafenib]
Method in brief: as §1

[7] = compound: CCCS(=O)(=O)Nc1ccc(F)c(C(=O)c2c[nH]c3ncc(Cl)cc23)c1F
Method in brief: as §1

[8] = compound: CCCc1cc(C)[nH]c(=O)c1CNC(=O)c1cc(-c2ccnc(N3CCN(C)CC3)c2)cc2c1cnn2C(C)C
Method in brief: as §1

[9] = compound: CCN(CC)Cc1ccc2cc(COC(=O)Nc3ccc(C(=O)NO)cc3)ccc2c1 [givinostat]
Method in brief: as §1

[10] = compound: CCN(CCCOc1ccc2c(Nc3cc(CC(=O)Nc4cccc(F)c4)[nH]n3)ncnc2c1)CCOP(=O)(O)O [barasertib]
Method in brief: as §1

[11] = compound: CC[C@@H]1C(=O)N(C)c2cnc(Nc3ccc(C(=O)NC4CCN(C)CC4)cc3OC)nc2N1C1CCCC1
Method in brief: as §1

[12] = compound: CC[C@@H]1C(=O)N(C)c2cnc(Nc3ccc(C(=O)N[C@H]4CC[C@H](N5CCN(CC6CC6)CC5)CC4)cc3OC)nc2N1C(C)C [volasertib]
Method in brief: as §1

[13] = compound: CC[C@H](C)N1C=C(C2=C(C=C(C=C21)C3=CN=C(C=C3)N4CCNCC4)C(=O)NCC5=C(C=C(NC5=O)C)C)C
Method in brief: as §1

[14] = compound: CC[C@H](C)[C@@H](C(=O)N[C@@H]([C@@H](C)O)C(=O)N[C@@H](CC(C)C)C(=O)[C@]1(CO1)C)NC(=O)[C@H]([C@@H](C)CC)N(C)C(=O)C [epoxomicin]
Method in brief: as §1

[15] = compound: CCn1c(C(=O)N(C2CC2)C2CC2)cc2c3c(ncn3C)c(Nc3cc(C)n(C)n3)nc21
Method in brief: as §1

[16] = compound: CCn1cc(-c2ccnc3[nH]c(-c4cccc(CN(C)C)c4)cc23)c(-c2ccc(NC(=O)N(C)C)cc2)n1
Method in brief: as §1

[17] = compound: CN(C)CC(=O)Nc1ccc2[nH]c(=O)c3ccccc3c2c1
Method in brief: as §1

[18] = compound: CN(CCOC1=CC=C(C=C1)C[C@H]2C(=O)NC(=O)S2)C3=CC=CC=N3 (racemic) [rosiglitazone]
Method in brief: as §1

[19] = compound: CN1C2=C(C3=C1C(=O)N(N=C3)CC4=CC(=CC=C4)N)SC(=C2)S(=O)C
Method in brief: as §1

[20] = compound: CN1CCC(CNc2ccc3ncc(-c4cccc(OC(F)(F)F)c4)n3n2)CC1
Method in brief: as §1

Measured: log2 fold change

VPS29 isoform 2 (UniProt Q9UBQ0)
inactive: [1] 0 | [2] -0.001 | [3] -0.003 | [4] 0.024 | [5] -0.058 | [6] -0.003 | [7] 0.009 | [8] -0.039 | [9] -0.046 | [10] 0.013 | [11] -0.001 | [12] 0.067 | [13] -0.016 | [14] 0.041 | [15] -0.007 | [16] 0.001 | [17] -0.01 | [18] 0.022 | [19] -0.068 | [20] -0.075

WDR3 (UniProt Q9UNX4)
inactive: [1] 0.108 | [2] -0.002 | [3] -0.102 | [4] -0.096 | [5] 0.169 | [6] -0.061 | [7] -0.049 | [8] 0.175 | [9] 0.103 | [10] -0.039 | [11] 0.093 | [12] 0.04 | [13] 0.118 | [14] -0.245 | [15] -0.013 | [16] 0.087 | [17] -0.167 | [18] 0.024 | [19] 0.247 | [20] 0.275

WDR47 (UniProt O94967)
inactive: [1] -0.031 | [2] -0.031 | [3] 0.07 | [4] 0.127 | [5] -0.048 | [6] -0.023 | [7] -0.045 | [8] -0.004 | [9] 0.004 | [10] -0.007 | [11] 0.011 | [12] -0.112 | [13] -0.02 | [14] -0.037 | [16] -0.055 | [17] -0.012 | [19] 0.029 | [20] 0.234

VDAC1 (UniProt P21796)
inactive: [1] -0.025 | [2] 0.02 | [3] 0.025 | [4] 0.012 | [5] -0.028 | [6] 0.015 | [7] 0.018 | [8] -0.005 | [9] -0.001 | [10] -0.017 | [11] 0.019 | [12] 0.063 | [13] -0.013 | [14] 0.012 | [16] -0.009 | [17] -0.005 | [19] -0.022 | [20] 0.055

WDR7 (UniProt Q9Y4E6)
active: [12] -0.415
inactive: [1] -0.029 | [2] -0.008 | [3] -0.016 | [4] -0.025 | [5] -0.216 | [6] 0.091 | [7] 0.083 | [8] 0.202 | [9] 0.067 | [10] 0.03 | [11] -0.09 | [13] 0.027 | [14] -0.007 | [16] -0.007 | [17] 0.279 | [19] 0.034 | [20] -0.199

VPS33A (UniProt Q96AX1)
inactive: [1] -0.013 | [2] -0.074 | [3] -0.016 | [4] -0.021 | [5] -0.024 | [6] 0.003 | [7] 0.036 | [8] 0.04 | [9] 0.058 | [10] 0.068 | [11] -0.224 | [13] 0.043 | [14] 0.039 | [16] -0.004 | [17] 0.059 | [19] 0.035 | [20] -0.208
active: [12] -0.359

VRK1 (UniProt Q99986)
inactive: [1] -0.089 | [2] -0.121 | [3] 0.096 | [4] 0.063 | [5] -0.085 | [6] 0.122 | [7] 0.072 | [8] 0.108 | [9] 0.046 | [10] 0.075 | [11] -0.184 | [12] -0.159 | [13] 0.102 | [14] 0.169 | [16] -0.06 | [17] 0.135 | [19] -0.028 | [20] -0.03

VPS52 (UniProt Q8N1B4)
inactive: [1] -0.071 | [2] -0.001 | [3] -0.009 | [4] 0.005 | [5] 0.079 | [6] 0.023 | [7] 0.006 | [8] 0.048 | [9] -0.004 | [10] 0.054 | [11] -0.107 | [13] 0.153 | [14] 0.092 | [16] 0.006 | [17] -0.021 | [19] 0.037 | [20] -0.027
active: [12] -0.383

VPS41 (UniProt P49754)
active: [20] -0.25
inactive: [1] 0.015 | [2] 0.003 | [3] 0.004 | [4] -0.028 | [5] 0.108 | [6] -0.051 | [7] 0.025 | [8] -0.03 | [9] -0.013 | [10] -0.02 | [11] -0.214 | [12] -0.309 | [13] 0.02 | [14] -0.038 | [16] -0.106 | [17] -0.004 | [19] 0.054

VWA8 (UniProt A3KMH1)
inactive: [1] -0.07 | [2] 0.042 | [3] 0.023 | [4] 0.019 | [5] -0.059 | [6] 0.034 | [7] 0.011 | [8] 0.032 | [9] 0.025 | [10] 0.022 | [11] -0.027 | [12] -0.071 | [13] 0.048 | [14] -0.005 | [16] -0.094 | [17] 0.056 | [19] -0.01 | [20] -0.034

WDR61 (UniProt Q9GZS3)
active: [20] -0.247
inactive: [1] -0.026 | [2] 0.024 | [3] 0.001 | [4] -0.027 | [5] -0.035 | [6] -0.072 | [7] -0.115 | [8] -0.02 | [9] 0.026 | [10] 0.038 | [11] 0.067 | [12] 0.102 | [13] 0.035 | [14] -0.029 | [16] 0.035 | [17] -0.011 | [19] -0.066

WASH2P (UniProt Q6VEQ5)
inactive: [1] -0.001 | [2] -0.034 | [3] 0.019 | [4] 0 | [5] 0.139 | [6] 0.03 | [7] -0.01 | [8] 0.026 | [9] -0.007 | [10] 0.043 | [11] -0.071 | [12] -0.163 | [13] 0.024 | [14] 0 | [16] 0.037 | [17] 0.021 | [19] 0.012 | [20] -0.067

WDR18 (UniProt Q9BV38)
inactive: [1] -0.042 | [2] 0.08 | [3] 0.016 | [4] 0.014 | [5] -0.035 | [6] 0.04 | [7] -0.003 | [8] 0.004 | [9] -0.025 | [10] 0.013 | [11] 0.034 | [12] -0.1 | [13] 0.022 | [14] 0.016 | [16] -0.026 | [17] -0.017 | [19] 0.018 | [20] -0.002

WASHC2A (UniProt Q641Q2)
inactive: [1] -0.053 | [2] -0.012 | [3] -0.039 | [4] -0.014 | [5] 0.004 | [6] -0.041 | [7] -0.005 | [8] 0.085 | [9] 0.004 | [10] 0.032 | [11] -0.058 | [12] -0.15 | [13] 0.026 | [14] 0.022 | [16] 0.052 | [17] -0.046 | [19] 0.037 | [20] -0.18

VTI1B (UniProt Q9UEU0)
inactive: [1] -0.038 | [2] 0.006 | [3] -0.008 | [4] -0.014 | [5] 0.036 | [6] -0.03 | [7] 0.009 | [8] -0.034 | [9] -0.04 | [10] -0.007 | [11] -0.028 | [12] -0.066 | [13] -0.037 | [14] -0.057 | [16] -0.018 | [17] -0.009 | [19] 0.018
active: [20] -0.331

WDR4 (UniProt P57081)
inactive: [1] -0.112 | [2] -0.055 | [3] 0.173 | [4] 0.104 | [5] 0.048 | [6] -0.004 | [8] -0.013 | [9] -0.026 | [10] -0.023 | [11] -0.031 | [12] -0.072 | [13] 0.025 | [14] 0.074 | [16] -0.06 | [17] 0.022 | [19] -0.08 | [20] -0.114
active: [7] 0.26

VPS13B (UniProt Q7Z7G8)
inactive: [1] 0.02 | [2] -0.028 | [3] 0.06 | [4] 0.057 | [5] -0.011 | [6] 0.008 | [7] -0.011 | [8] -0.008 | [9] 0.002 | [10] 0.002 | [11] -0.01 | [12] -0.088 | [13] 0.004 | [14] 0.019 | [16] -0.008 | [17] -0.028 | [19] -0.053 | [20] -0.109

Reprinted at random: two records from the list
WDR4 (UniProt P57081)
inactive: [1] -0.112 | [2] -0.055 | [3] 0.173 | [4] 0.104 | [5] 0.048 | [6] -0.004 | [8] -0.013 | [9] -0.026 | [10] -0.023 | [11] -0.031 | [12] -0.072 | [13] 0.025 | [14] 0.074 | [16] -0.06 | [17] 0.022 | [19] -0.08 | [20] -0.114
active: [7] 0.26

WDR18 (UniProt Q9BV38)
inactive: [1] -0.042 | [2] 0.08 | [3] 0.016 | [4] 0.014 | [5] -0.035 | [6] 0.04 | [7] -0.003 | [8] 0.004 | [9] -0.025 | [10] 0.013 | [11] 0.034 | [12] -0.1 | [13] 0.022 | [14] 0.016 | [16] -0.026 | [17] -0.017 | [19] 0.018 | [20] -0.002
